{
  "source": "patent US8552066B2",
  "about": "“Modified chalcone compounds as antimitotic agents” (Arizona Biomedical Research Commission, priority 2006, dated 2013)",
  "assay": "Reaction of CMAC-1 with thiol nucleophile (NMR study)",
  "details": "one equivalent N-acetylcysteamine",
  "description": "To probe the reactivity of the α,β-unsaturated thiol ester CMAC-1 with a thiol nucleophile like that of tubulin, an NMR study was carried out. CMAC-1 (7.2 mg/0.7 mL CDCl3) was treated with one equivalent of N-acetylcysteamine (the thiol nucleophile) as a tubulin model compound. […] To deprotonate the neutral thiol and convert it into the thiolate, 0.1 equivalent of a base (DBN, 1,5-diazabicyclo[4.3.0]non-5-ene) was added. Within 10 minutes of addition of DBN, 89% of CMAC-1 had been converted to the product of nucleophilic addition, shown below in Scheme 3, as evidenced by loss of the thiol ester vinyl proton resonances (S—C(═O)—CH═CH—CH3) and an upfield shift of the terminal CH3 signal from δ 1.8 to 1.3 ppm. Two minor products were also observed.",
  "data": [
    {"smiles": "C/C=C/C(=O)SCC(=O)Oc1cc(/C=C/C(=O)c2cc(OC)c(OC)c(OC)c2)ccc1OC", "note": "[CMAC-1, 3-[3-(crotonylsulfanylmethylcarbonyloxy)-4-methoxyphenyl]-1-(3,4,5-trimethoxyphenyl)propenone]", "values": [
      {"measurement": "CMAC-1 converted to the product of nucleophilic addition", "setting": "0.1 equivalent DBN, CDCl3, within 10 minutes of addition of DBN", "value": 89, "unit": "%"},
      {"measurement": "change in NMR spectrum on treatment with thiol nucleophile", "setting": "CDCl3, no base", "value": "no observable change in the NMR spectrum"}
    ]}
  ]
}
